Patent US20050119301A1, “Treatment of restenosis” (priority 2001, published 2005)
For some of these results: For at least one compound, name, drawing or mass did not settle the structure. Some entries share one result that the patent states for a list of compounds.

Assays:
[1] = Peroxyl radical scavenging, AAPH-induced oxidation of linoleate; type: biochemical; set-up: dose or concentration left out as unconfirmed
Method: Peroxyl radicals are natural side-products of a number of enzymes, including lipoxygenases and cyclo-oxygenase. Peroxyl radicals were generated by the thermo-labile azo-initiator AAPH. AAPH-induced oxidation of linoleate was performed as described previously (Pryor et al., 1993), except that a lower linoleate concentration was used and SDS was omitted. An aliquot of a linoleate stock solution was added to PBS at 37° C. to give a final concentration of […]. Oxidation was initiated by the addition of AAPH (87.5 mM final concentration) in the absence and presence of either 10 mM of Cpd. 7, Cpd. 8 or Cpd. 12 or 500 mM ascorbate (positive control). Formation of linoleate hydroperoxide was monitored by UV 234 nm using a Perkin Elmer's UV/Vis Lambda 40 spectrophotometer. The test was performed twice as single analysis. An appropriate concentration of alcohol (ethanol and isopropanol; 0.13%-0.2% v/v) was included in the respective control samples.

[2] = a-tocopheroxyl radical attenuating ability (TRAA) assay in micelles; type: biochemical; conditions: 10 μM; relative rate constant of a-tocopheroxyl radical decay with/without sample; large = active
Method: The a-tocopheroxyl radical attenuating ability (TRAA) assay has been described in detail by Witting et al. (1997). Briefly, one hundred mM stock solutions of cetyltrimethyl ammonium chloride (HTAC) and sodium dodecyl sulphate (SDS) were prepared in phosphate buffer. Micellular dispersions of a-tocopherol were prepared by diluting an ethanolic solution of a-tocopherol (0.2 M) into micelles at a final vitamin concentration of […]. This resulting solution was sonicated for 15 sec at which time it was completely homogenous. […]
After accumulation of the T=0 min spectrum, the flat cell arrangement containing a-TO was removed from the ESR cavity and the solution was gently coaxed into the neck of the flat cell under positive pressure. […] The time-dependent decay of ESR signal intensity for a-TO was measured both in the presence and absence of the added co-antioxidant (10 mM) using a sweep time of 20.5 sec, averaging the output from three successive sweeps at each time point, and averaging the results of three separate experiments.
Results are expressed as the relative rate constant of decay of a-tocopheroxyl radicals in the presence of the test sample divided by the relative rate constant of decay of a-tocopheroxyl radicals in the absence of the test sample. […]

LDL [3] = assay: LDL antioxidation test (CuCl2-initiated LDL oxidation, lag time); type: biochemical, human; conditions: for Lag Time: control 20 min
LDL [4] = assay: as above; type: biochemical, human; conditions: 10 mM
Method: The LDL antioxidation test measures the ability of a compound to directly scavenge free radicals or to chelate transition metals. Thus in this series of experiments, the isoflavones and their derivatives were tested for their ability to act as free radical scavengers.
Fresh whole blood was obtained by venipuncture from healthy human volunteers under 25 years of age and supplemented immediately with EDTA (91 mg/ml) and BHT (4.4 mg/ml). LDL was prepared by step-wise ultracentrifugation within a density gradient of 1.02-1.05 g/cm^3. EDTA and BHT were present throughout all the steps of the isolation. The EDTA/BHT containing stock solution (15-30 mg LDL/ml) was stored in the dark in a nitrogen atmosphere until use, but never longer than two weeks.
Before oxidation experiments, the LDL stock solution was dialyzed in the 100-fold volume of 0.01 M phosphate buffer pH 7.4, 0.16 M NaCl, 0.1 mg/ml chloroamphenicol, which was made oxygen-free by vacuum degassing following by purging with nitrogen. The buffer was changed four times. This EDTA- and BHT-free LDL stock solution was used for all oxidation studies. The stock solution was stored not longer than 24 hr at 4° C. […]

## O=C1O[C@H]([C@@H](O)CO)C(O)=C1O [Ascorbate, reference compound]
[1]
  inhibition of AAPH-induced oxidation of linoleic acid, 234 nm absorbency (in words): prevented AAPH-induced oxidation of linoleic acid
[2]
  TRAA, HTAC Micelle (positive): Immediate decay
  TRAA, SDS Micelle (negative): Immediate decay
LDL [3]; Table 2, 2.5 μM
  % Increase in Time: 150%
  Lag Time: 50 min
LDL [3]; Table 3, 2.5 μM
  % Increase in Time: 250%
  Lag Time: 70 min

## Oc1ccc(C2COc3cc(O)ccc3C2O)cc1 (stereo not shown) [Cpd. 8]
LDL [4]
  increase of the lag time: over 600%

## COc1ccc(-c2coc3cc(O)ccc3c2=O)cc1 [Formononetin]
LDL [3]; Table 2, 10 μM
  % Increase in Time: 0%
  Lag Time: 20 min
